Consider 1 compound from patent US20240216313A1, “ELAFIBRANOR DERIVATIVES AGONISTS OF PPAR FOR USE IN THE TREATMENT OF SEPSIS” (Genfit, priority 2021, published 2024).

Molecules are shown by their SMILES.

For the test, the system named is THP1 macrophages. Put plainly: Macrophage activation: MCP1 and TNFα secretion induced by LPS from Klebsiella in THP1 macrophages (HTRF). Type of test: cell-based. To be noted: Homo sapiens, THP-1, 10 μM, 24 h, then LPS Klebsiella 6 h; read-out: % inhibition of MCP1 secretion over mean Veh. The method, then: In order to test the efficacy of the compounds on macrophage activation and pro-inflammatory cytokine production, 2.5×10^4 THP-1 cells were cultured in a 384-well plate and treated with 100 ng/mL PMA (#P8139, Sigma) for 24 h to induce differentiation into macrophages.
Then, medium was removed and FBS-deprived medium containing 1 or 10 μM compound was added for 24 h. Finally, THP1 macrophages were stimulated for 6 h with 100 ng/mL LPS (Klebsiella pneumoniae, #L4268, Sigma-Aldrich).
Monocyte chemoattractant protein 1 (MCP1) and […] (TNFα) were measured in cell supernatants by Homogeneous Time Resolved Fluorescence (HTRF, #62HTNFAPEG for TNFα, and 62HCCL2PEG for MCP1, Cisbio). Fluorescence was measured with Infinite 500 (#30019337, Tecan) to determine the concentration of cytokines.

A word on the inhibition: it is the percentage by which the read-out fell short of the control. `CC(C)OC(=O)C(C)(C)Oc1ccc(C(=O)c2ccc(Cl)cc2)cc1` [Cpd. 19, fenofibrate, reference compound]: the inhibition at 10 µM turned out to be 89%.
